Our source for the binding values is publication PMC11792004.

Chains of the proteins cited; added tags and fusions are not shown. Lines headed by an entry give the natural chain unless they say otherwise; changes in a name come on top.
UniProt Q08722: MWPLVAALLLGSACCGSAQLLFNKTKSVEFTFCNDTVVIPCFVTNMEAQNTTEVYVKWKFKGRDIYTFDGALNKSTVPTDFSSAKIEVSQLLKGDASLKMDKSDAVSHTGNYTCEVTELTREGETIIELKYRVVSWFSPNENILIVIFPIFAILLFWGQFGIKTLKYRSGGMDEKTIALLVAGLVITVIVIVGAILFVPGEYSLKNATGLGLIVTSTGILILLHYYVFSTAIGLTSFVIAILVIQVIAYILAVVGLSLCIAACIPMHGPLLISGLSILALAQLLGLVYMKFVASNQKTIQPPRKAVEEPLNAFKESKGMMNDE

No constants are given. Whether binding was seen depends on the method and setting. Binding calls can cover weak binding; strength is not graded here. Sequences can lack the tags named with a protein.

The assay concerns the target T1, GST-TRAF2 (UniProt Q12933).
T1 sequence: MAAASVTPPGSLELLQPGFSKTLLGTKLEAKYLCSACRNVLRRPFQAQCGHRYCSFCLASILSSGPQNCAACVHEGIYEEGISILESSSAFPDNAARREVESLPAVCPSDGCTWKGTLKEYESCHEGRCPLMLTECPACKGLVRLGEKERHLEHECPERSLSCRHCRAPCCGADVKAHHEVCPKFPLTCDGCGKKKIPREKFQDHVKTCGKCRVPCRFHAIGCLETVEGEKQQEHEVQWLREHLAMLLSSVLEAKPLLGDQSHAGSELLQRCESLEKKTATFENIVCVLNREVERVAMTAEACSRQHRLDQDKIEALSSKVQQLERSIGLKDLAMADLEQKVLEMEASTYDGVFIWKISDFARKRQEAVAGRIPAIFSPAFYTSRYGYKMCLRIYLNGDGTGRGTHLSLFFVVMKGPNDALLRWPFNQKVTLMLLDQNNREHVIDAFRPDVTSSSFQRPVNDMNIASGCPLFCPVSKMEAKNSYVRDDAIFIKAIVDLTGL
Nature of the assay: pull-down; in vitro binding: 5 µg GST-TRAF2 immobilised on glutathione-agarose beads, 25 mM HEPES pH7.5, 6 mM NaCl, 0.2% NP-40, 4 °C; same amount of his-CD47 or his-CD47/∆C added; Western blot; both purified.

Take “his-CD47 (pET-28a-CD47) (from UniProt Q08722)”: the binding result is given as “binds”.
